The target of test [1] is T1, Cdc11-GFP (S. cerevisiae) (UniProt P32458).
T1 sequence: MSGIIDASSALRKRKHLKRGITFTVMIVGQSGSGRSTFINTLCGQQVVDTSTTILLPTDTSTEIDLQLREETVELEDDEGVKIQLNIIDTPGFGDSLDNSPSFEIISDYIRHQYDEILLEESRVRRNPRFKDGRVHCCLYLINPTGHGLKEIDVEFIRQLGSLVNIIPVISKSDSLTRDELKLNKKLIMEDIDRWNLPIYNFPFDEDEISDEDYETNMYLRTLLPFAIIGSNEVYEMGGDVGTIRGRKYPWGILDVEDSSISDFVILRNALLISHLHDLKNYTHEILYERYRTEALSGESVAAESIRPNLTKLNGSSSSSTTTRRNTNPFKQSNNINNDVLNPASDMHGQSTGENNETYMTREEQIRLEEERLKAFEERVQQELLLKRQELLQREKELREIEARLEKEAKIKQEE
Kind of test: affinity purification with mass spectrometry; Cdc11-GFP immunopurified from the esa1-L254P strain background at 37°C, co-purified proteins found by mass spectrometry.

The next test has as its target T2, Shs1-TAP (S. cerevisiae) (UniProt Q07657).
T2 sequence: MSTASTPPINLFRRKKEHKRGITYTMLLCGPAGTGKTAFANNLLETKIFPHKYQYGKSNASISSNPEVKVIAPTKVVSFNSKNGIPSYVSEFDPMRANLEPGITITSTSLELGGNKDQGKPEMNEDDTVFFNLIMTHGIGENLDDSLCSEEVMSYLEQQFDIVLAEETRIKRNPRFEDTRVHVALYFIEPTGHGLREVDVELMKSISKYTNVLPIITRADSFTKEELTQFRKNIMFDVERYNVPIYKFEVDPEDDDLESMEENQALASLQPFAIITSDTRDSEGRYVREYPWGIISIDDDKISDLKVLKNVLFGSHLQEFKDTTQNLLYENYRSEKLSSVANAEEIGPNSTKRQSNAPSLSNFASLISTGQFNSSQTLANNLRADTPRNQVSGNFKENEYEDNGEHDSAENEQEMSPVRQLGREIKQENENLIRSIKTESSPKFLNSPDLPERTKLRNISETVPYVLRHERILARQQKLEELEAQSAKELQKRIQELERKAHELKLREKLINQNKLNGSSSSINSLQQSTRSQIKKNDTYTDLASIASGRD
Kind of test: affinity purification with mass spectrometry; single step purification of TAP-tagged septins (Cdc11-TAP or Shs1-TAP) on IgG magnetic beads from 40 mg yeast whole cell extract, 300 mM sodium acetate, 4°C; half of each sample treated with NuA4 and acetyl coenzyme A; bands cut from silver stained SDS-PAGE gel, trypsin, LC-MS/MS.

The target of test [2] is T3, Cdc11-TAP (S. cerevisiae), P32458.
T3 chain: T1 sequence
The description is as above. The settings on record: remark: other sources report otherwise.

The target of test [3] is T4, Shs1-TAP (S. cerevisiae), Q07657.
T4 chain: T2 sequence
The test is described as above. The settings on record: remark: other sources report otherwise.

The target in test [4] is T5, Cdc11-TAP (S. cerevisiae) (UniProt P32458).
T5 sequence: T1 sequence
The description is as above.

These are yes or no findings as the source states them, for the method shown. In cells and extracts the contact can be indirect. These calls come from enrichment with a bait or labelling near it, and not all partners need be listed. For some assays here: Tags and fused reporters may be left off the sequences shown.

As for Act1 (from UniProt P60010 1-375), the binding entry in test [1] is on record as “binds”.

B1: Abp1 (protein, UniProt P15891 1-592)
chain: MALEPIDYTTHSREIDAEYLKIVRGSDPDTTWLIISPNAKKEYEPESTGSSFHDFLQLFDETKVQYGLARVSPPGSDVEKIIIIGWCPDSAPLKTRASFAANFAAVANNLFKGYHVQVTARDEDDLDENELLMKISNAAGARYSIQTSSKQQGKASTPPVKKSFTPSKSPAPVSKKEPVKTPSPAPAAKISSRVNDNNDDDDWNEPELKERDFDQAPLKPNQSSYKPIGKIDLQKVIAEEKAKEDPRLVQKPTAAGSKIDPSSDIANLKNESKLKRDSEFNSFLGTTKPPSMTESSLKNDDDKVIKGFRNEKSPAQLWAERKAKQNSGNAETKAEAPKPEVPEDEPEGEPDVKDLKSKFEGLAASEKEEEEMENKFAPPPKKSEPTIISPKPFSKPQEPVKAEEAEQPKTDYKKIGNPLPGMHIEADNEEEPEENDDDWDDDEDEAAQPPLPSRNVASGAPVQKEEPEQEEIAPSLPSRNSIPAPKQEEAPEQAPEEEIEEEAEEAAPQLPSRSSAAPPPPPRRATPEKKPKENPWATAEYDYDAAEDNELTFVENDKIINIEFVDDDWWLGELEKDGSKGLFPSNYVSLGN
B1: in test [1], the binding result was “binds”.

B2: Cdc12 (protein, UniProt P32468 1-407)
chain: MSAATATAAPVPPPVGISNLPNQRYKIVNEEGGTFTVMLCGESGLGKTTFINTLFQTVLKRADGQQHRQEPIRKTVEIDITRALLEEKHFELRVNVIDTPGFGDNVNNNKAWQPLVDFIDDQHDSYMRQEQQPYRTKKFDLRVHAVLYFIRPTGHGLKPIDIETMKRLSTRANLIPVIAKADTLTAQELQQFKSRIRQVIEAQEIRIFTPPLDADSKEDAKSGSNPDSAAVEHARQLIEAMPFAIVGSEKKFDNGQGTQVVARKYPWGLVEIENDSHCDFRKLRALLLRTYLLDLISTTQEMHYETYRRLRLEGHENTGEGNEDFTLPAIAPARKLSHNPRYKEEENALKKYFTDQVKAEEQRFRQWEQNIVNERIRLNGDLEEIQGKVKKLEEQVKSLQVKKSHLK
Turning to B2, the binding entry in the test with Shs1-TAP (S. cerevisiae) was “binds”.

B3: Cdc10, P25342 1-322 (protein)
chain: MDPLSSVQPASYVGFDTITNQIEHRLLKKGFQFNIMVVGQSGLGKSTLINTLFASHLIDSATGDDISALPVTKTTEMKISTHTLVEDRVRLNINVIDTPGFGDFIDNSKAWEPIVKYIKEQHSQYLRKELTAQRERFITDTRVHAILYFLQPNGKELSRLDVEALKRLTEIANVIPVIGKSDTLTLDERTEFRELIQNEFEKYNFKIYPYDSEELTDEELELNRSVRSIIPFAVVGSENEIEINGETFRGRKTRWSAINVEDINQCDFVYLREFLIRTHLQDLIETTSYIHYEGFRARQLIALKENANSRSSAHMSSNAIQR
With B3, the binding entry in test [2] and in test [3] was “binds” in each case.

B4: Cdc3 (protein, UniProt P32457 1-520)
chain: MSLKEEQVSIKQDPEQEERQHDQFNDVQIKQESQDHDGVDSQYTNGTQNDDSERFEAAESDVKVEPGLGMGITSSQSEKGQVLPDQPEIKFIRRQINGYVGFANLPKQWHRRSIKNGFSFNLLCVGPDGIGKTTLMKTLFNNDDIEANLVKDYEEELANDQEEEEGQGEGHENQSQEQRHKVKIKSYESVIEENGVKLNLNVIDTEGFGDFLNNDQKSWDPIIKEIDSRFDQYLDAENKINRHSINDKRIHACLYFIEPTGHYLKPLDLKFMQSVYEKCNLIPVIAKSDILTDEEILSFKKTIMNQLIQSNIELFKPPIYSNDDAENSHLSERLFSSLPYAVIGSNDIVENYSGNQVRGRSYPWGVIEVDNDNHSDFNLLKNLLIKQFMEELKERTSKILYENYRSSKLAKLGIKQDNSVFKEFDPISKQQEEKTLHEAKLAKLEIEMKTVFQQKVSEKEKKLQKSETELFARHKEMKEKLTKQLKALEDKKKQLELSINSASPNVNHSPVPTKKKGFLR
In the case of B4, the binding entry (in test [4]; with Shs1-TAP (S. cerevisiae)) was “binds” throughout.

B5: Crn1 (protein, UniProt Q06440 1-651)
chain: MSGKFVRASKYRHVFGQAAKKELQYEKLKVTNNAWDSNLLKTNGKFIAVNWNASGGGAFAVIPIEEVGKAPDQVPLFRGHTAQVLDTDFDPFNDHRIASGSDDSKIGIWDIPENYKFHDHVDEDGEPIDIKPVKFLTGHARKVGHVLYHPVAENVLASSSGDYTVKLWNVETGKDMITLKHPDMVTSMSFSYDGNYLATVARDKKLRVWNIREEKIVSEGPAHTGAKNQRVVWLGNSDRLATTGFSKLSDRQIGIWDAFNIEKGDLGGFYTVDQSSGILMPFYDEGNKILYLVGKGDGNIRYYEFQNDELFELSEFQSTEAQRGFAVAPKRMVNVKENEVLKGFKTVVDQRIEPVSFFVPRRSEEFQEDIYPDAPSNKPALTAEEWFSGKSVEGPILVSMRSIYDGSAPSFHEAKRPQQPTTQETALEEKKEQPKVEKPISESEKEVKQEAPKSPSPLKSASSSSTINHVLKEDNSINKLLKKSSDIDQVNNAEDPSRDTSGWEEADDEPAPIKIETPVTPTETKKDRTPKVEPSKELKPEPVSIATDRKQEQSLPQEEKSSEKTKSPEQEKSATPPSSITAAKTAITASSKEEPSAARTSPKSLGLKKSVEKLSTLVLQLEDVVDKLTKANLDKDERLLKLEQKIGELSK
Turning to B5, the binding result in test [1] was “binds”.

These data come from PMC3184947.
